In PubChem BioAssay AID2098 (Broad Institute, 2009):
Out of some 300,000 compounds screened, about 2,300 (0.77%) were called active. The shares of active, inactive and inconclusive entries below differ from those in the screen.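 Rule for the calls: active = more than half of replicate wells show activity change below -50%, luminescence cut by over half; inconclusive = some wells, but at most half, below -50%; inactive = no replicate well below -50%.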

Assay: HSF1 inhibitors in luciferase reporter cells, primary screen, cell-based, NIH3T3, luminescence (AID 2098);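 note: luciferase reports HSF-1 transcriptional activity via heat shock element; 0% = median of DMSO wells and -100% = zero luminescence signal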
Conditions: NIH3T3-HGL HSE-luciferase, MG132-induced, luminescence 8 h; stronger effect = lower value; screened at 7.5 µM (by protocol)

Row | Structure (SMILES) | activity change, negative = inhibition
1 | CC(=O)c1cccc(NC(=O)CN2C(=S)NC(C)(C)CC2C)c1 (stereo unspecified) | active: -62%
2 | Cc1ccc(NC(=O)OCCNC(=O)OC(C)C)cc1 | inconclusive: -31.5%
3 | CCc1ccc(/C=C2\SC(=S)N(CCCC(=O)Nc3ccccn3)C2=O)cc1 | inconclusive: -50.6%
4 | Cc1cccc(C)c1NC(=O)CN1C(=O)NC(C)(CCc2ccccc2)C1=O (stereo unspecified) | active: -90.6%
5 | O=C(CCNS(=O)(=O)c1cccc2nsnc12)NCc1cccs1 | active: -80.2%
6 | Nn1c(-c2ccccn2)nnc1-c1ccccn1 | inactive: 6.93%
7 | CCCc1cc(=O)[nH]c(Nc2ccc3c(c2)OCCO3)n1 | inconclusive: -49.9%
8 | CCC(=O)Nc1cc(-c2nn(C)c(=O)c3ccccc23)ccc1OC | inactive: -2.08%
9 | O=C(NC(=S)N1CCCCC1)c1cccs1 | inconclusive: -49.7%
10 | O=C(NC(=S)Nc1ccc(NC(=O)c2cccs2)cc1)c1ccco1 | inconclusive: -30.6%
11 | COc1ccccc1N1CC(C)C(=O)NC1=S (stereo unspecified) | active: -56%
12 | c1ccc(Cn2cc(CNc3ccccc3)nn2)cc1 | inactive: 9.94%
13 | CC(=O)N/N=C(\C)CC(=O)NC(C)(C)C | inconclusive: -57.3%
14 | CC(C)OCC1CC(CC(=O)Nc2ccc([N+](=O)[O-])cc2)C(=O)O1 (stereo unspecified) | inactive: 2.77%
15 | CC(C)CCNC(=O)Cn1cc2c(n1)CCCCC2 | inconclusive: -55.2%
16 | CCCCN1CNC(=S)N(c2ccc(C(=O)OCC)cc2)C1 | inconclusive: -47.2%
17 | CCC(Sc1nc(C)cc(C)n1)C(=O)NC1=NN=C(c2ccc(C)cc2)CS1 (stereo unspecified) | active: -73.9%
18 | C=CC1C(N2CCOCC2)C(C)(C)S1(=O)=O (stereo unspecified) | inconclusive: -35.1%

Grouped by structure, the compounds so far with an aryl methoxy group.
Row | Structure (SMILES) | activity change, negative = inhibition
8 | CCC(=O)Nc1cc(-c2nn(C)c(=O)c3ccccc23)ccc1OC | inactive: -2.08%
11 | COc1ccccc1N1CC(C)C(=O)NC1=S (stereo unspecified) | active: -56%

Later entries.

Row | Structure (SMILES) | activity change, negative = inhibition
19 | COc1ccc(NCc2nnc(SCC(=O)Nc3cc(C(F)(F)F)ccc3Cl)o2)cc1 | active: -59.7%
20 | COc1ccccc1C(=O)NC(=S)Nc1ccc(N2CCN(C(=O)c3ccco3)CC2)cc1 | inconclusive: -44.7%
21 | C=CCSc1nc(N)cc(=O)[nH]1 | inconclusive: -51%
22 | COC(=O)CCC(=O)NNC(=O)c1cccc(Br)c1 | active: -66.6%
23 | NC(=O)COC(=O)c1ccccc1Oc1ccccc1 | inconclusive: -48.1%
24 | CCOC(=O)CCS(=O)(=O)c1nc(-c2ccccc2)cc(C(F)(F)F)n1 | inconclusive: -13.8%
25 | CC(=O)c1c(-c2ccc(Cl)cc2Cl)noc1C | active: -57.5%
26 | CCOC(=O)Cc1csc(NC(=S)NC(=O)c2ccc(Cl)cc2)n1 | inconclusive: -49.7%
27 | Cc1oc(-c2nc3ccccc3n2C)cc1C(=O)c1ccccc1 | inactive: -3.12%
28 | O=C(c1cccs1)n1nc(-c2ccco2)nc1SCc1ccccc1 | active: -53.6%
29 | O=C(CSc1ccc(-c2ccccn2)nn1)NC1CCCCC1 | inconclusive: -49.7%
30 | COc1cc(OC)c(NC(=O)CN(C)S(=O)(=O)c2ccc3[nH]c(=O)oc3c2)cc1Cl | inactive: -43.7%
31 | O=C(N/N=C/c1ccc2ccccc2c1)c1ccc(COc2ccc3c(c2)CCC3)o1 | inactive: -0.446%
32 | COc1ccc(CNc2ccc(S(N)(=O)=O)cc2)cc1 | inconclusive: -50.9%
33 | COc1cccc(OCc2cc(/C=N/Nc3ccc(C(=O)O)cc3)ccc2OC)c1 | active: -73%
34 | N#CCSc1nnc(-c2cnccn2)n1Cc1ccccc1 | inconclusive: -42.7%
35 | COC(=O)c1cccc(-c2ccc(C(c3c(C)[nH][nH]c3=O)c3c(C)[nH][nH]c3=O)o2)c1 | inactive: 13%
36 | O=C(NCCc1ccccc1)C(c1cccs1)N(C(=O)CCl)c1ccc(Cl)cc1 (stereo unspecified) | active: -95.3%
